According to article PMC11344278, “Structural and biochemical characterization of the C‐terminal region of the human RTEL1 helicase” (Protein Science : A Publication of the Protein Society, 2024):
The exact form of at least one protein or probe is not confirmed. For part of these data: A weaker result is weaker than the reference pair of the same experiment. For part of these data: Tags and fusion partners may be left off the protein sequences shown.

How the values were obtained:
[1] = target: T1, RTEL1 HHD2 (Homo sapiens) (UniProt Q9NZ71); experiment: fluorescence anisotropy; settings: 0.5 mM Mg2+, 20 mM Tris pH 7.5, 50 mM KCl, 0.5 mM MgCl2, 10% glycerol, 0.1% Igepal, 10 nM substrate, recombinant protein, protein details: N-terminal 6His-Trx removed by TEV, label: 5' 6-FAM
T1 sequence (looked up, limits assumed): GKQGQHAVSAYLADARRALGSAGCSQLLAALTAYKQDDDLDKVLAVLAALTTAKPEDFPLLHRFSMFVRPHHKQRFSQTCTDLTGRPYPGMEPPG

[2] = test system: RTEL1 HHD1-2 (Homo sapiens); experiment: fluorescence anisotropy; settings: 0.5 mM Mg2+, Kd given as NA (not applicable); 20 mM Tris pH 7.5, 50 mM KCl, 0.5 mM MgCl2, 10% glycerol, 0.1% Igepal, 10 nM substrate; recombinant protein; protein details: N-terminal 6His-Trx removed by TEV; label: 5' 6-FAM on strand 1 (D9); folded or branched DNA

Question: For “CTACTACCCCCACCCTCACAACCTTTTTTTTTTTTTTT [ssDNA]”, which Kd ([1]; single-stranded DNA) is on record?
Answer: 684 nM

Question: For “CUACCCCCACCCUCACAACCUUUUUUUUUUUUUUU [ssRNA]”, which Kd [1] is on record?
Answer: 235 nM

Question: Does “GTACCCGGGGATCCTCTAGAGTCGACCTGCAGGCATGCAAGCTTGGCACTGGCCGTCGTTTTACAAC / GTTGTAAAACGACGGCCAGTGCCTTTTCCCAGCCTCAATCTCATCACTCTAGAGGATCCCCGGGTAC [Bubble (D9:D11)]” bind [2]?
Answer: binds more weakly
